Measurements taken from patent publication US20190388377A1, “COMPOSITIONS AND METHODS FOR THE TREATMENT OF LIVER DISEASES AND DISORDERS” (AXCELLA HEALTH INC., priority 2018, published 2019).

How the values were obtained:
[1] = tested on: primary human hepatic stellate cells; assay: META-rank composite score over aSMA, ProC3, EdU in the HSC model; format: cell-based; details: lower score = more optimal
[2] = tested on: M1 macrophage; assay: META-rank composite score over IL-6 and TNFa in the M1 macrophage model; format: cell-based, human

Row | SMILES | Meta-Rank ([1]; AA Conc. 20X) | Meta-Rank ([2]; AA Conc. 20X) | other results
1 | CC(=O)N[C@@H](CS)C(=O)O [Nac, N-acetylcysteine] | – | – | Meta-Rank ([1]; 5 mM): 7.667; Meta-Rank ([2]; 5 mM): 3.5
2 | CC(C)C[C@H](N)C(=O)O [L, L-leucine] | 17.333 | 13 | –
3 | C[N+](C)(C)C[C@H](O)CC(=O)[O-] [Car, L-carnitine] | – | – | Meta-Rank ([1]; AA Conc. 5X): 14.333; Meta-Rank ([2]; 5 mM): 10
4 | CC[C@H](C)[C@H](N)C(=O)O [I, L-isoleucine] | 19 | 14 | –
5 | CC(C)[C@H](N)C(=O)O [V, L-Valine] | 13.667 | 12 | –
6 | NC(=O)CC[C@H](N)C(=O)O [Q, L-glutamine] | 11.667 | 18 | –
7 | N[C@@H](CO)C(=O)O [S, L-serine] | – | – | Meta-Rank ([1]; AA Conc. 25X): 14; Meta-Rank ([2]; AA Conc. 25X): 15.5
8 | N=C(N)NCCC[C@H](N)C(=O)O [R, L-arginine] | – | – | Meta-Rank ([1]; AA Conc. 25X): 11.667
